We go through 2 substances from article PMC5579575, “Study of Alzheimer’s Disease-Related Biophysical Kinetics with a Microslit-Embedded Cantilever Sensor in a Liquid Environment” (Sensors (Basel, Switzerland), 2017).

In the series the test system is Aβ oligomeric intermediates (seeds) immobilized on Au surface. Nature of the series: Topographic analysis (AFM) of Aβ aggregation on seed-immobilized Au surface.

A value given as a limit tells only on which side of the number the result lay.

Take “Aβ42: synthetic Aβ42 peptide, which has an identical sequence of 42-residue amino acids associated with human AD (Sigma-Aldrich)”: the surface roughness was determined as 1.413 nm (100 ng/mL monomeric Aβ added to seed-immobilized surface), 2.224 nm (1 μg/mL monomeric Aβ added to seed-immobilized surface) and 4.694 nm (10 μg/mL monomeric Aβ added to seed-immobilized surface). The length of aggregates (10 μg/mL Aβ42 added to seed-immobilized surface (Figure 5e)) is listed as over 100 nm. Moreover, the “observed structures on surface” value (Aβ42 100 ng/mL and 1 μg/mL added to seed-immobilized surface (Figure 5c,d)) is given as “oligomeric structures with length of tens of nanometers were observed”.

As to “oligomeric seeds: heterogeneous oligomeric intermediates prepared from Aβ42 peptide incubated without agitation at 37 °C for 48 h”, the surface roughness (seed-only surface (no monomer added)) is reported as 0.7341 nm. Also, for the setting “seeds solely immobilized (Figure 5b)”, the “observed structures on surface” value is on record as “sub-nm-sized particles were distributed”.
